Laboratory results as given in patent US20250195658A1 (ST JUDE CHILDREN S RESEARCH HOSPITAL, published 2025).
Results are given in words; binding and its absence hold for the method and conditions named. Some results given as binding are weak or reduced against the parent protein; the word gives no strength.

T1: Recombinant Human IL3RA protein conjugated to APC (Creative BioMart, CAT #IL3RA-3248HA) (human) (UniProt P26951)
T1 sequence (conjugated to APC, looked up): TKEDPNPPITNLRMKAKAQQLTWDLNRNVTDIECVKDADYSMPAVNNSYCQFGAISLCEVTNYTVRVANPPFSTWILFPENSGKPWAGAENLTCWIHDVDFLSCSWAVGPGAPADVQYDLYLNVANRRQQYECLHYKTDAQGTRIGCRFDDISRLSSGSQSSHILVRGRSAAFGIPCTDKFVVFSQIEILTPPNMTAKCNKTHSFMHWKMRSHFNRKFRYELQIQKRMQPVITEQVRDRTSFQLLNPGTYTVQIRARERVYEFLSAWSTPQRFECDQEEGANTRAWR


Target: T1, Recombinant Human IL3RA protein conjugated to APC (Creative BioMart, CAT #IL3RA-3248HA) (human)
Experiment: flow cytometry, recombinant CD123 protein binding to CAR T cells

| binding | Binder |
| --- | --- |
| binds | GRP78-GPcPcPc-CD123-CAR (other) CTVALPGGYVRVCEFAGSGGSGGSGGSPVPSTPPTNSSSTPPTPSPSPVPSTPPTNSSSTPPTPSPSPVPSTPPTNSSSTPPTPSPSASAAAQVQLQQPGAELVRPGASVKLSCKASGYTFTSYWMNWVKQRPDQGLEWIGRIDPYDSETHYNQKFKDKAILTVDKSSSTAYMQLSSLTSEDSAVYYCARGNWDDYWGQGTTLTVSSGGGGSGGGGSGGGGSDVQITQSPSYLAASPGETITINCRASKSISKDLAWYQEKPGKTNKLLIYSGSTLQSGIPSRFSGSGSGTDFTLTISSLEPEDFAMYYCQQHNKYPYTFGGGTKLEIKSIEVMYPPPYLDNEKSNGTIIHVKGKHLCPSPLFPGPSKPFWVLVVVGGVLACYSLLVTVAFIIFWVRSKRSRLLHSDYMNMTPRRPGPTRKHYQPYAPPRDFAAYRSRVKFSRSADAPAYQQGQNQLYNELNLGRREEYDVLDKRRGRDPEMGGKPRRKNPQEGLYNELQKDKMAEAYSEIGMKGERRRGKGHDGLYQGLSTATKDTYDALHMQALPPR |
| binds | GRP78-G4S3-CD123-CAR (other, Residues from 510 on (spacer RSGVDSG, T2A, tCD19) are also left out; also called 78.(G4S)3.123; G4S2) CTVALPGGYVRVCEFGGGGSGGGGSGGGGSAAAQVQLQQPGAELVRPGASVKLSCKASGYTFTSYWMNWVKQRPDQGLEWIGRIDPYDSETHYNQKFKDKAILTVDKSSSTAYMQLSSLTSEDSAVYYCARGNWDDYWGQGTTLTVSSGGGGSGGGGSGGGGSDVQITQSPSYLAASPGETITINCRASKSISKDLAWYQEKPGKTNKLLIYSGSTLQSGIPSRFSGSGSGTDFTLTISSLEPEDFAMYYCQQHNKYPYTFGGGTKLEIKSIEVMYPPPYLDNEKSNGTIIHVKGKHLCPSPLFPGPSKPFWVLVVVGGVLACYSLLVTVAFIIFWVRSKRSRLLHSDYMNMTPRRPGPTRKHYQPYAPPRDFAAYRSRVKFSRSADAPAYQQGQNQLYNELNLGRREEYDVLDKRRGRDPEMGGKPRRKNPQEGLYNELQKDKMAEAYSEIGMKGERRRGKGHDGLYQGLSTATKDTYDALHMQALPPR |
